In patent US20210324059A1:

Target: Glutathione S-transferase
Experiment: quality control ELISA on immobilized control protein

| binding | Binder |
| --- | --- |
| no binding | full length chimeric antibody AbD33047 with an IgG1 mouse Fc region (antibody, V domains shown) VH: QVQLVQSGAEVKKPGASVKVSCKASGYTFNDYYIHWVRQAPGQGLEWMGVISPNSGKTNYAQKFQGRVTMTRDTSISTAYMELSRLRSEDTAVYYCARDLYPDSSAFDIWGQGTLVTVSS VL: DIELTQPPSVSVSPGQTASITCSGDNLGDKYAHWYQQKPGQAPVLVIYDDNERPSGIPERFSGSNSGNTATLTISGTQAEDEADYYCQSYDSGNRVFGGGTKLTVLG |
| no binding | full length chimeric antibody AbD33473 with an IgG1 mouse Fc region (antibody, V domains shown) VH: EVQLVQSGAEVKKPGESLKISCKGSGYSFSSYWIHWVRQMPGKGLEWMGTIFPSRSYTTYSPSFQGQVTISADKSISTAYLQWSSLKASDTAMYYCARDTPSTALKSPFDYWGQGTLVTVSS VL: DIVLTQPPSVSGAPGQRVTISCSGSSSNIGYNYVYWYQQLPGTAPKLLIYENNKRPSGVPDRFSGSKSGTSASLAITGLQAEDEADYYCSSWDSHSNSYVFGGGTKLTVLG |

These are yes or no findings as the source states them, for the method shown. Where a sequence is shown, tags or fusion partners need not be part of it.
